Measured values as given in ChEMBL document CHEMBL1130802, “Design and synthesis of a new type of non steroidal human aromatase inhibitors” (Bioorg Med Chem Lett, 1998).
pIC50, pKi: −log10 of the molar value.

What was measured:
[1] = biological target: T1, Aromatase (Homo sapiens, UniProt P11511)
T1 sequence (P11511 whole entry): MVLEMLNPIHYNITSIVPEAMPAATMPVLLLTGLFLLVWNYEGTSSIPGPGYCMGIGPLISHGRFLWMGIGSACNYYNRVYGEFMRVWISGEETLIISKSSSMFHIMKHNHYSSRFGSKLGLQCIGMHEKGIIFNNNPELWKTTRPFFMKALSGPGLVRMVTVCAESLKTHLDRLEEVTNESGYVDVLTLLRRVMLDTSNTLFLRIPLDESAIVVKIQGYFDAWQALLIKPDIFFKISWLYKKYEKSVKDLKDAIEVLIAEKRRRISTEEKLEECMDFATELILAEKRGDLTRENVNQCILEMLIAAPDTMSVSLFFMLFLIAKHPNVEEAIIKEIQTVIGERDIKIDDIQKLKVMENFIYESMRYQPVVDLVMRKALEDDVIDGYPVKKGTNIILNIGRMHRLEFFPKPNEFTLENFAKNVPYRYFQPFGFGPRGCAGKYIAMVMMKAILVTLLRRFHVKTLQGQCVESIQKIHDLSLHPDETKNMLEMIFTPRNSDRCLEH

[2] = biological target: T1, Aromatase; remark: listed apart in the source

COc1ccc2c(c1)C(N)=C(CC1=CCNC=C1)C2=O
pIC50 [1]: 5.46
pKi [2]: 7.06
